Source: US20130142882A1, “METHODS AND COMPOSITIONS FOR TREATMENT, MODIFICATION AND MANAGEMENT OF BONE CANCER PAIN” (GOLDEN BIOTECHNOLOGY CORPORATION, priority 2011, published 2013)
At least one compound was matched to its structure with a doubt left.

Test system: rat model of bone cancer pain (Walker 256 rat mammary gland carcinoma cells injected into the right tibia)
Assay: Mechanical allodynia (Von Frey test) in a rat model of bone cancer pain
Type: in vivo, Rat (Sprague-Dawley)
Procedure: The objective of this study was to assess the potential anti-nociceptive and anti-tumourigenic effects of Compound 1, at doses of 15, 30 and 45 mg/kg, in an animal model of bone cancer pain. Metastasis of cancer cells to the bone was modeled by injecting Walker 256 rat mammary gland carcinoma cells into the medullary cavity of the right tibia (Mao-Yinga, et al. A rat model of bone cancer pain induced by intra-tibia inoculation of Walker 256 mammary gland carcinoma cells. Biochem Biophys Res Commun 2006; 345: 1292-1298). The development of mechanical allodynia was monitored using an established behavioural test (Von Frey test). Treatment administration was chronic, from the day of surgery, and administered twice daily for 21 days to determine whether there was a prophylactic effect on the development of mechanical allodynia. Zoledronic acid was used as a reference substance. No regulatory test guidelines were applicable to this study.
Rats have been studied in this model of bone cancer pain. The route of administration of Compound 1 and vehicle was oral. The doses of Compound 1 were 15, 30 and 45 mg/kg, twice a day (approximately 10 h apart) for 21 days.
The dose of zoledronic acid was 30 μg/kg, as a single administration, every second day from the day of surgery, based on historical data. The route of administration of zoledronic acid was subcutaneous.
The dose volume for test substance and vehicle treatments was 5 mL/kg. The vehicle for Compound 1 was corn oil. Each rat allocated to test substance or vehicle treatments received an oral dose, by gavage, twice daily (approximately 8 am and 6 pm) for 21 consecutive days. The dose volume for the reference substance treatment was 1 mL/kg. Each rat allocated to reference substance treatment received a single subcutaneous dose, by injection (approximately 8 am) every second day from the day of surgery.
Cell preparation. Walker 256 rat mammary gland carcinoma cells (obtained from the American Type Culture Collection (ATCC)) were harvested from sub-confluent cultures growing in vitro and the number of viable cells determined. Cells were then re-suspended in sterile phosphate buffered saline (PBS) at a concentration of 4×10^5 cells. Female Sprague-Dawley rats were intratibially injected in the right leg with 4×10^5 Walker 256 rat mammary gland carcinoma cells in a volume of 6 μL as detailed in Surgical procedure below.
Baseline behavioural testing. The rats were moved to the procedure room 5 days prior to behavioural testing. The rats were then housed, dosed and observed in the procedure room. The behavioural test was performed on all rats on 2 separate occasions prior to surgery, to establish baseline values. Pre-surgery baseline values were taken as the data from the final (second) day of testing (the data from the first day of testing was not included but classed as part of the acclimatisation).
Mechanical allodynia (Von Frey test): Each animal was placed in a wire mesh cage and a series of Von Frey filaments were applied to the plantar surface of the hind paw, from below. The filaments were applied in ascending order (starting with the weakest force), and the withdrawal threshold for both the left and right hind paws were evaluated. Each filament was indented on the mid-plantar surface of the foot to the point where it just started to bend; this was repeated approximately 8 to 10 times per filament at a frequency of approximately 1 Hz. The withdrawal threshold was defined as the lowest force of two or more consecutive Von Frey filaments to elicit a reflex withdrawal response (i.e. a brief paw flick).
Surgical procedure. The animals were surgically prepared over 2 days. Each rat was anaesthetised as necessary with isofluorane in […]. The surface around the incision site was shaved and sterilised. Under aseptic conditions, an incision was made in the skin over the top of the right tibia to expose the tibia head with minimal damage. […]

| Compound | Withdrawal threshold versus pre-surgery baseline (45 mg/kg p.o. twice daily (high dose), Day 21, both paws) | Effect against the establishment of mechanical allodynia (15, 30 and 45 mg/kg p.o. twice daily from the day of surgery for 21 days) | Sensitivity to the Von Frey filaments versus vehicle control group (15, 30 and 45 mg/kg p.o. twice daily, left and right paws, from Day 12 for the duration of the study) | Effect on the development of mechanical allodynia (30 and 45 mg/kg p.o. twice daily from the day of surgery, from as early as Day 6 PO) | Effect on the development of mechanical allodynia (30 μg/kg s.c. every second day from the day of surgery, from as early as Day 6 PO (left paw)) | Sensitivity to the Von Frey filaments versus vehicle group (30 μg/kg s.c. every second day, left and right paws, from Day 12 for the duration of the study) |
| --- | --- | --- | --- | --- | --- | --- |
| COC1=C(OC)C(O)C(C/C=C(\C)CC/C=C(\C)CCC=C(C)C)C(C)C1=O (stereo not drawn) [Compound 1, 4-hydroxy-2,3-dimethoxy-6-methyl-5-(3,7,11-trimethyldodeca-2,6,10-trienyl)cyclohex-2-enone] | reversal of the sensitivity of both paws to levels similar to the pre-surgery baseline | significant prophylactic effect | significantly less sensitive | significant protective effects |  |  |
| O=P(O)(O)C(O)(Cn1ccnc1)P(=O)(O)O [Zoledronic acid, reference compound] |  |  |  |  | significant protective effects | significantly less sensitive |
